These are yes or no findings as the source states them, for the method shown. Tags and fused reporters may be left off the sequences shown.
Biological target: rat ASIC1a-GFP (rat) (UniProt P55926)
Experiment: native gel or EMSA; high-resolution clear native PAGE (4 to 16%) of GFP-tagged proteins from 1% digitonin lysates of transfected HEK cells, GFP fluorescence scan; without coexpressed PCYOX1L

B1: rat ASIC1a-GFP (natural protein, UniProt P55926-1 1-526, looked up)
chain: MELKTEEEEVGGVQPVSIQAFASSSTLHGLAHIFSYERLSLKRALWALCFLGSLAVLLCVCTERVQYYFCYHHVTKLDEVAASQLTFPAVTLCNLNEFRFSQVSKNDLYHAGELLALLNNRYEIPDTQMADEKQLEILQDKANFRSFKPKPFNMREFYDRAGHDIRDMLLSCHFRGEACSAEDFKVVFTRYGKCYTFNSGQDGRPRLKTMKGGTGNGLEIMLDIQQDEYLPVWGETDETSFEAGIKVQIHSQDEPPFIDQLGFGVAPGFQTFVSCQEQRLIYLPSPWGTCNAVTMDSDFFDSYSITACRIDCETRYLVENCNCRMVHMPGDAPYCTPEQYKECADPALDFLVEKDQEYCVCEMPCNLTRYGKELSMVKIPSKASAKYLAKKFNKSEQYIGENILVLDIFFEVLNYETIEQKKAYEIAGLLGDIGGQMGLFIGASILTVLELFDYAYEVIKHRLCRRGKCQKEAKRSSADKGVALSLDDVKRHNPCESLRGHPAGMTYAANILPHHPARGTFEDFTC
notes: ASIC1a, rat, in pEGFP-N1; the methods say that rat ASIC1a was used for coexpression with PCYOX1L in HEK293 cells; The vector pEGFP-N1 would put GFP at the C-terminus; source: HEK cells, transfected, in digitonin lysate
- binding: no binding (condition: without coexpressed PCYOX1L)

— paper PMC13155533, “The secreted protein PCYOX1L controls the surface expression of acid-sensing ion channel 1a” (Science Advances, 2025)
